The target of this test is HA-tagged wtp53 (UniProt P04637). The test is described as follows: co-IP; 293 T cells overexpressing TRIM3 and/or p53, lysed in HEPES buffer (50 mM HEPES pH 7.5, 150 mM NaCl, 1 mM MgCl2, 1 mM EGTA) with protease inhibitors, sonicated; extracts with antibodies against Flag and HA overnight at 4 °C, Protein A plus-Sepharose 4 h at 4 °C, five washes; western blot; the CoIP with HA-p53 constructs and v5-TRIM3 followed the same steps.

Drawing on PMC9998637, this text covers binding for two molecules.

These are yes or no findings as the source states them, for the method shown. In cells and extracts the contact can be indirect. Some entries that bind do so weakly or less than the wild type. Sequences can lack the tags named with a protein.

B1: Flag-tagged TRIM3 (Tripartite-motif containing 3) (protein, UniProt O75382 1-744)
chain: MAKREDSPGPEVQPMDKQFLVCSICLDRYQCPKVLPCLHTFCERCLQNYIPAQSLTLSCPVCRQTSILPEQGVSALQNNFFISSLMEAMQQAPDGAHDPEDPHPLSVVAGRPLSCPNHEGKTMEFYCEACETAMCGECRAGEHREHGTVLLRDVVEQHKAALQRQLEAVRGRLPQLSAAIALVGGISQQLQERKAEALAQISAAFEDLEQALQQRKQALVSDLETICGAKQKVLQSQLDTLRQGQEHIGSSCSFAEQALRLGSAPEVLLVRKHMRERLAALAAQAFPERPHENAQLELVLEVDGLRRSVLNLGALLTTSATAHETVATGEGLRQALVGQPASLTVTTKDKDGRLVRTGSAELRAEITGPDGTRLPVPVVDHKNGTYELVYTARTEGELLLSVLLYGQPVRGSPFRVRALRPGDLPPSPDDVKRRVKSPGGPGSHVRQKAVRRPSSMYSTGGKRKDNPIEDELVFRVGSRGREKGEFTNLQGVSAASSGRIVVADSNNQCIQVFSNEGQFKFRFGVRGRSPGQLQRPTGVAVDTNGDIIVADYDNRWVSIFSPEGKFKTKIGAGRLMGPKGVAVDRNGHIIVVDNKSCCVFTFQPNGKLVGRFGGRGATDRHFAGPHFVAVNNKNEIVVTDFHNHSVKVYSADGEFLFKFGSHGEGNGQFNAPTGVAVDSNGNIIVADWGNSRIQVFDSSGSFLSYINTSAEPLYGPQGLALTSDGHVVVADAGNHCFKAYRYLQ
In the case of B1, the binding result is recorded as “binds”.

B2: v5-TRIM3 (protein, UniProt O75382 1-744)
chain: MAKREDSPGPEVQPMDKQFLVCSICLDRYQCPKVLPCLHTFCERCLQNYIPAQSLTLSCPVCRQTSILPEQGVSALQNNFFISSLMEAMQQAPDGAHDPEDPHPLSVVAGRPLSCPNHEGKTMEFYCEACETAMCGECRAGEHREHGTVLLRDVVEQHKAALQRQLEAVRGRLPQLSAAIALVGGISQQLQERKAEALAQISAAFEDLEQALQQRKQALVSDLETICGAKQKVLQSQLDTLRQGQEHIGSSCSFAEQALRLGSAPEVLLVRKHMRERLAALAAQAFPERPHENAQLELVLEVDGLRRSVLNLGALLTTSATAHETVATGEGLRQALVGQPASLTVTTKDKDGRLVRTGSAELRAEITGPDGTRLPVPVVDHKNGTYELVYTARTEGELLLSVLLYGQPVRGSPFRVRALRPGDLPPSPDDVKRRVKSPGGPGSHVRQKAVRRPSSMYSTGGKRKDNPIEDELVFRVGSRGREKGEFTNLQGVSAASSGRIVVADSNNQCIQVFSNEGQFKFRFGVRGRSPGQLQRPTGVAVDTNGDIIVADYDNRWVSIFSPEGKFKTKIGAGRLMGPKGVAVDRNGHIIVVDNKSCCVFTFQPNGKLVGRFGGRGATDRHFAGPHFVAVNNKNEIVVTDFHNHSVKVYSADGEFLFKFGSHGEGNGQFNAPTGVAVDSNGNIIVADWGNSRIQVFDSSGSFLSYINTSAEPLYGPQGLALTSDGHVVVADAGNHCFKAYRYLQ
As to B2, the binding entry is given as “binds”.
